For 1 molecule, binding results are on record in patent US20060127371A1.

These are yes or no findings as the source states them, for the method shown. In cells and extracts the contact can be indirect. Binding can be weak; no strength is given. Where a sequence is shown, tags or fusion partners need not be part of it.

This experiment addresses myc-tagged zebrafish Nrarp (zebrafish). Briefly: co-immunoprecipitation from co-transfected HEK-293 cells (summing-up sentence).

B1: HA-tagged Asb-a (zebrafish Asb-a, full length) (protein, not shown: small tags and cut ends)
chain: MAVVHAEGNVWIKQWDHRFHMYGGQTCSPLMAGSWDDRTPLHDAALQGRLLPLRRLLSQGYNVGMATLDGITALHEACVGGHFTCAKLLLEHGADANAVTFDGATPLFSACCSGNPALVSLILTHSSAHHPAHLLCSPLHEAAKRGHTACVELLLSHGVNVDMELPSVGTALYCACEVKSTDCVLTLLILGADVQCGRGLDTPLHAACRVGGAKEAELLLEHGADRTSRNSEGKTPLDLTSDQSIKHLLQTAGTCSLSQLCRWCIRRSLGQKGLNKTKTLCLPHMLHNYLLYH
As for B1, the binding entry is on record as “binds”.
